# According to paper PMC7257154:
# B1: Myc-Tbx2ΔN (domain or fragment, UniProt B7ZQY8 54-688)
# chain: DASLAGAAEAGLHLSALGHHHQAAHLRSLKSLEPEEEVEDDPKVNLEAKELWDQFHKIGTEMVITKSGRRMFPPFKVRVSGLDKKAKYILLMDIVAADDCRYKFHNSRWMVAGKADPEMPKRMYIHPDSPATGEQWMAKPVAFHKLKLTNNISDKHGFTILNSMHKYQPRFHIVRANDILKLPYSTFRTYVFPETDFIAVTAYQNDKITQLKIDNNPFAKGFRDTGNGRREKRKQLSLPSLRMYEEQCKADRDGAESDASSCDPAPGRDSLHSPLSAEPSPLRLHRNNREEKFGADSDQELDRREIRSARSHSPVGHRSPPSSPRLEDRGKDKSTPEKKSDSPESRKDGSDSLFSSIRSLEKDKAESRRKEDSKSDPECGSLSKETFAPLMVQTDSPPHLSASHLQSLALSGLHGQQFFNPLNAGQPLFIHPGQFTMGPGAFSAMGMGHLLASMTGAGALDNGSLSSVQGATGAANPFPFHFSQHMLASQGIPMPAFGGLFPYPYTYMAAAAAAASAMPATSAATTMPRNPFLSSTRPRLRFNPYQIPVGIPPSTNLLTTGLPGSLNPGSESSKPGSSRESSPIPDTPVPKRSHSNSLSPKASMKDSINELQNIQRLVSGLESQREISPGRETPK
# Molecular target: native Smad1 (Xenopus laevis (endogenous in embryos))
# Test: co-IP; lysate of late gastrula Xenopus laevis embryos injected with RNA of the Myc-tagged construct; native Smad1 precipitated with anti-Smad1 and Dynabeads Protein G, blot with anti-Myc; lysis buffer 150 mM NaCl, 20 mM Tris pH 7.5, 1% Nonidet P-40, 1 mM EDTA; 4 °C overnight; normal rabbit IgG as control
binder,measurement,value
B1,binding,binds

# Results are given in words; binding and its absence hold for the method and conditions named. Binding seen in cells or lysates may run through a third protein. Binding can be weak; no strength is given. Where a sequence is shown, tags or fusion partners need not be part of it.
